Record: PubChem BioAssay AID504784 (Drosophila RNAi Screening Center, 2011)

Test: 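Fly genes whose silencing alters how much lipid cells keep in droplets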 (primary screen)
System: Drosophila Kc167 embryonic cells
Knock-down reagent: long dsRNA against Drosophila genes, about 250 ng dsRNA per well
Time to read-out: 4 days
Challenge: cells fed 400 µM oleic acid bound to BSA
Detection: 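Microscope images give a droplet-to-nucleus area ratio, taken as log and converted to a screen-wide B-score; higher values mean greater lipid storage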
Direction: droplet/nuclear area B-score: higher = more stored lipid (overstorage)
In all, the deposit lists about 17,000 reagents; this is a random part of those that have a named target and a result. 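Each column is one replicate's B-score; the combined score over replicates was not deposited, so single values may mislead.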 Reagents against one gene are numbered here. Not all columns of the deposit are shown. Reagent sequences are not shown.

droplet/nuclear area B-score, replicate 1, by gene and reagent
mRpL14: #1 -0.49
Lgr3: #1 -0.114; #2 -0.304
CG5281: #1 0.019
Obp57a: #1 -0.683
CG6959: #1 1.54
CG13955: #1 -0.703
SoYb: #1 0.231
GstD2: #1 0.909
aub: #1 1.37
Sil1: #1 -1.29
eIF4H2: #1 0.0212
Tsp42El: #1 -1.94
Klp59C: #1 0.501
CG14823: #1 0.189
Nepl4: #1 0.0217
CG18130: #1 -0.631
CG15083: #1 0.808
lncRNA:CR31526: #1 1.85
Bhmt: #1 -1.65
alphaTub67C: #1 -1.41
Agpat2: #1 -1.56

Sorted by “droplet/nuclear area B-score, replicate 1” (descending): 3 of the entries above
Gene	reagent no.	droplet/nuclear area B-score, replicate 1
CG14823	1	0.189
Nepl4	1	0.0217
CG18130	1	-0.631

The list goes on.
droplet/nuclear area B-score, replicate 1, by gene and reagent
CG5639: #1 1.01
pasha: #1 0.405
CG32161: #1 -0.023
trv: #1 0.055; #2 1.44; #3 0.00556; #4 0.85
CG11699: #1 0.582
CG5111: #1 0.806
Kif19A: #1 -0.477
Regnase-1: #1 -0.396
Dop1R2: #1 0.642; #2 0.00581
